Experimental data taken from PubChem BioAssay AID1259415 (National Center for Advancing Translational Sciences (NCATS), 2018).
About 18,000 (4.4%) of roughly 410,000 compounds were called active. Inconclusive results, whose numbers are uncertain, are shown with a selection of clear calls. Cut-off read from the data, not from the text of the source: active = activity change below about -60%; inconclusive = no clear call, values can overlap the other calls; inactive = above about -39%.
% is set by controls: 0 for no effect and ±100 for the full control effect.

Assay: qHTS Assay for inhibitors of the human cytomegalovirus (HCMV)
Settings: HFF cells, HCMV-luciferase reporter, 72 h; at 57.5 µM; stronger effect = lower value
In short: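 Two compound doses tested in HFFs infected with HCMV-luciferase, MOI 1 PFU/cell, 72 h at 37C. Lysate luminescence read with OneGlo; data normalized against buffer-only and 10uM Salinomycin inhibitor controls.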
In the case of `CC(OC(=O)C1=COCCO1)C(=O)Nc1cc(S(=O)(=O)N2CCCCC2)ccc1Cl` (stereo not given), the activity change, negative = inhibition is reported as inactive: -17.3%. For `Cc1ccc(CNS(=O)(=O)c2c(C)[nH]c(C)c2C(=O)N2CCCCC2)o1`, the activity change, negative = inhibition was inactive: -29.2%. In the case of `CC(=O)c1ccc(NC(=S)NCc2cccnc2)cc1`, the activity change, negative = inhibition is reported as inconclusive: -40.7%. With `CCCc1cc(-c2nc(N)ncc2-c2ccc3c(c2)OCCCO3)c(O)cc1OC` the activity change, negative = inhibition was inconclusive: -48.1%. For `Cc1cc(/C=C2/SC(=S)N(c3ccc([N+](=O)[O-])cc3)C2=O)c(C)n1-c1cccnc1`, the activity change, negative = inhibition was active: -83.1%. In the case of `CCc1cc2c(CN(C)Cc3ccccc3F)cc(=O)oc2cc1O`, the activity change, negative = inhibition is reported as inconclusive: -44.6%. For `COc1cccc(/C=C2/CCC(CN(C)C)C2=O)c1` (stereo not given), the activity change, negative = inhibition was active: -86.9%. For `COc1cc(C(=S)N2CCOCC2)cc(OC)c1OS(=O)(=O)c1ccc(NC(C)=O)cc1`, the activity change, negative = inhibition was inactive: 3.24%. In the case of `C=CCNC(=O)c1cc2sccc2n1C`, the activity change, negative = inhibition is reported as inconclusive: -47.1%. In the case of `O=C(CSc1ccc2nnc(-c3ccccn3)n2n1)Nc1ccccc1F`, the activity change, negative = inhibition is reported as inactive: 43.3%. With `COCCN(Cc1nc2ccccc2c(=O)[nH]1)C(=O)COc1cccc(C(C)=O)c1` the activity change, negative = inhibition was inactive: 4.08%. In the case of `CCOC(=O)COc1ccc2ccccc2c1/C=C/[N+](=O)[O-]`, the activity change, negative = inhibition is reported as active: -98.7%. For `Cc1ccnc(NC(=O)Cc2ccc(-c3ccccc3)cc2)c1`, the activity change, negative = inhibition was active: -90.4%. With `O=c1cccc2c1c1cc[nH]c3ccc(=O)n2c31` the activity change, negative = inhibition was active: -70%. In the case of `O=S(=O)(Nc1ccc(O)c(NS(=O)(=O)c2ccccc2)c1)c1ccccc1`, the activity change, negative = inhibition is reported as inconclusive: -47.7%. For `CC(=O)c1cn(Cc2ccccc2)c(=O)n(Cc2ccc(F)cc2)c1=O`, the activity change, negative = inhibition was inconclusive: -54.9%. With `Cn1c(=O)[nH]c2c(cnn2C)c1=O` the activity change, negative = inhibition was active: -98.4%. For `Cc1nc2ccc(NC(=O)c3ccc(S(=O)(=O)N(C)c4ccccc4)cc3)cc2s1`, the activity change, negative = inhibition was active: -82.1%. With `CCC(C)n1c(=S)[nH]c2ccccc2c1=O` (stereo not given) the activity change, negative = inhibition was inconclusive: -53.6%. For `Cn1c(=O)n(C)c2cc(NS(=O)(=O)c3ccc(Cl)s3)ccc21`, the activity change, negative = inhibition was inactive: 256%. In the case of `CCCCC(=O)Nc1nn(CC)c2nc3c(C)cccc3cc12`, the activity change, negative = inhibition is reported as inconclusive: -47.3%. For `COC(=O)c1nc(-c2ccccc2)nc(-c2ccccc2)c1C(=O)OC`, the activity change, negative = inhibition was inconclusive: -50.1%. For `Cc1ccc(/C=C(\C#N)c2nc3ccccc3c(=O)[nH]2)cc1`, the activity change, negative = inhibition was inactive: -0.405%. In the case of `Cc1nc(Nc2ccccc2)[nH]c(=O)c1CCC(C)C`, the activity change, negative = inhibition is reported as inconclusive: -46.8%. With `O=C(NCCc1ccccc1F)C1CC(=O)N(c2cccc(C(F)(F)F)c2)C1` (stereo not given) the activity change, negative = inhibition was inactive: 11.5%. With `COc1ccc(C(N)=S)c(OC)c1` the activity change, negative = inhibition was inconclusive: -45.3%. For `Cc1cc(Cl)ccc1OCC(=O)NCCOC(=O)Nc1sc(=S)n(C)c1C`, the activity change, negative = inhibition was inconclusive: -46.8%. In the case of `Cc1cccc(NC(=S)NCc2ccc3[nH]c4c(c3c2)CCCC4)c1`, the activity change, negative = inhibition is reported as active: -72.9%. With `Cc1ccc2nc(N(CCCN(C)C)C(=O)c3ccc(S(=O)(=O)N(C)C)cc3)sc2c1` the activity change, negative = inhibition was inactive: 31.6%. For `Cc1ccc2nc(N3CCOCC3)c(C=O)cc2c1`, the activity change, negative = inhibition was inactive: 17.1%. For `c1ccc(Cc2noc(CN3CCN(CCOc4ccccc4)CC3)n2)cc1`, the activity change, negative = inhibition was inactive: -9.35%. With `CCOc1ccc(NC(=O)CSc2nc(=O)n(Cc3ccccn3)c3c2CCC3)cc1` the activity change, negative = inhibition was inconclusive: -56.9%. For `CCCCOC(=O)CCc1nc2ccccc2[nH]1`, the activity change, negative = inhibition was inconclusive: -55.5%. With `Cc1[nH]c2ccccc2c1SCC(=O)N1CCCc2ccccc21` the activity change, negative = inhibition was inactive: -8.16%. For `O=S(=O)(c1ccc(F)cc1)N1CCN(c2nc(-c3ccc(F)cc3)cs2)CC1`, the activity change, negative = inhibition was inconclusive: -52.7%. For `O=C(c1ccc2c(=O)n(C3CCCC3)c(=S)[nH]c2c1)N1CCCCCC1`, the activity change, negative = inhibition was inconclusive: -49.1%. For `Cc1cccc(NC(=O)CSc2nnc(CNC(=O)c3ccc(S(=O)(=O)N(C)C)cc3)n2-c2ccc(F)cc2)c1`, the activity change, negative = inhibition was inactive: 6.76%. With `N/C(=N\OC(=O)c1ccc([N+](=O)[O-])cc1Cl)c1ccccn1` the activity change, negative = inhibition was active: -72.1%. For `CCOc1ccccc1N(CC(=O)NCC1CCCO1)C(=O)CNS(=O)(=O)c1ccccc1` (stereo not given), the activity change, negative = inhibition was active: -68.8%. In the case of `CCOC(=O)Cn1c(=O)oc2cc(S(=O)(=O)N(C)Cc3ccccc3)ccc21`, the activity change, negative = inhibition is reported as inconclusive: -41.3%. In the case of `O=C(Nc1ccn2ccnc2n1)c1ccccc1C(F)(F)F`, the activity change, negative = inhibition is reported as inactive: -12.6%. With `CC(=O)N1CCN(c2ccc(NC(=S)NC(=O)COc3ccc(C(C)(C)C)cc3)cc2)CC1` the activity change, negative = inhibition was inconclusive: -42.7%. In the case of `Cc1cc(NS(=O)(=O)c2ccc3oc(=O)c4ncn(C)c4c3c2)ccc1Br`, the activity change, negative = inhibition is reported as inactive: -24.9%. In the case of `C/C(=N\NC(=O)CC(C)C)c1ccc(Cl)c(Cl)c1`, the activity change, negative = inhibition is reported as inactive: 188%. For `COc1ccccc1N1CCN(C(=O)c2cc3c(=O)n(C)c4ccccc4c3n2C)CC1`, the activity change, negative = inhibition was inactive: 20.2%. With `NS(=O)(=O)c1ccc(-c2ccc(C=O)o2)cc1` the activity change, negative = inhibition was inconclusive: -44.3%. In the case of `COc1ccc2nc(-c3ccccc3)nc(SCC(=O)NCC3CCCO3)c2c1` (stereo not given), the activity change, negative = inhibition is reported as inactive: -38.1%. With `C=CCc1cc(Cl)ccc1OCCCNC(C)CC` (stereo not given) the activity change, negative = inhibition was inconclusive: -47.4%. With `CCCOc1ccc(C2C(=O)N(C3CCCCCC3)CC(=O)N2CCC)cc1OC` (stereo not given) the activity change, negative = inhibition was inactive: -37.6%. With `COc1cccc(N2CC(O)=C(c3nc4ccccc4s3)C2=N)c1` the activity change, negative = inhibition was inconclusive: -50%. With `c1ccc(N2CCN(c3nnc(Cc4cccnc4)c4ccccc34)CC2)nc1` the activity change, negative = inhibition was inconclusive: -59%. With `CCN(CC)c1ccc(Nc2nc(Cl)ncc2Br)cc1` the activity change, negative = inhibition was inconclusive: -42.3%. In the case of `CCCN1CCN(C(=O)Cn2nc(C)n3c(cc4sccc43)c2=O)CC1`, the activity change, negative = inhibition is reported as inconclusive: -40.9%. With `N#C/C(=C\c1ccc2c(c1)OCO2)C(N)=S` the activity change, negative = inhibition was inactive: 11.4%. With `COc1ccc(S(=O)(=O)Nc2c(C)cc(C)cc2C)c2cccnc12` the activity change, negative = inhibition was active: -61.8%. In the case of `Cc1cccc(Cn2nc(C(C)(C)C)cc2C(=O)Nc2ccc(F)cc2)c1`, the activity change, negative = inhibition is reported as active: -93%. With `COc1ccc(CCNCC(=O)Nc2ccc(C(=O)N3CCCCC3)cc2)cc1` the activity change, negative = inhibition was inconclusive: -51%. In the case of `CCOC(=O)c1cnc(-n2nc(C)cc2C)nc1NC1CCCC1`, the activity change, negative = inhibition is reported as active: -108%. For `COc1ccc2[nH]cc(CCNC(=O)COc3cc(C)cc4oc(=O)cc(C)c34)c2c1`, the activity change, negative = inhibition was inactive: -2.14%. In the case of `O=C(N[C@@H](Cc1ccccc1)C(=O)N1CCN(S(=O)(=O)c2cccc(F)c2)CC1)c1ccco1`, the activity change, negative = inhibition is reported as inconclusive: -47.9%. For `CCOc1ccc(CC(=O)NCC(c2cccs2)S(=O)(=O)c2ccc(F)c(C)c2)cc1` (stereo not given), the activity change, negative = inhibition was inconclusive: -54.1%. For `COc1ccccc1Nc1nc(C)c(C(=O)Nc2ccccc2)s1`, the activity change, negative = inhibition was inconclusive: -47.1%. For `O=C(Cn1c(=S)[nH]c2ncccc2c1=O)NCCc1ccccc1`, the activity change, negative = inhibition was inconclusive: -46.1%. In the case of `Cc1ccc(C(=O)O/N=C(\N)c2ccccc2)c(Cl)c1`, the activity change, negative = inhibition is reported as inconclusive: -46.1%. With `O=C(NNC(=S)Nc1ccc(Cl)cc1)c1ccccc1OC(F)F` the activity change, negative = inhibition was inconclusive: -46.7%. With `Cc1ccc(NCc2n[nH]c(=S)n2-c2ccccc2)cc1Cl` the activity change, negative = inhibition was inconclusive: -59.4%. In the case of `O=C(c1ccccc1)c1nn(-c2ccc(Cl)cc2)c(=O)cc1C(F)(F)F`, the activity change, negative = inhibition is reported as active: -104%. With `Cc1ccc(/C=C2\C(=O)NC(=S)N(c3ccc(F)cc3)C2=O)s1` the activity change, negative = inhibition was inactive: 88.4%. In the case of `Cc1ccc(-c2csc(C(C#N)=C3CCCC3)n2)cc1`, the activity change, negative = inhibition is reported as inactive: -21.4%. With `O=C(Nc1cccc(-c2cccc(Cl)c2)c1)C1CCN(Cc2nccs2)CC1` the activity change, negative = inhibition was inconclusive: -42.4%. In the case of `CCN(CC)CCNC(=O)CCc1c(C)nc2c(c(C)nn2-c2ccc(C)c(C)c2)c1C`, the activity change, negative = inhibition is reported as active: -98%. With `COc1ccc(-c2cc(N3C(=O)Nc4ccccc4N3O)n[nH]2)c(OC)c1` the activity change, negative = inhibition was inconclusive: -40.8%. In the case of `CCC(=O)Nc1nonc1-c1nc2ccccc2n1CCC(C)C`, the activity change, negative = inhibition is reported as inconclusive: -42.8%. With `O=C(NC1CCCCC1)N1CCC(c2nc(-c3ccc(S(=O)(=O)N4CCCC4)cc3)no2)CC1` the activity change, negative = inhibition was active: -61.8%. With `OCCN1CCN(c2nc(-c3ccccc3)c3cc(Br)ccc3n2)CC1` the activity change, negative = inhibition was active: -61.6%. For `Cc1cc(NC(=O)CCC(=O)N(Cc2ccco2)C2(C(=O)NC3CCCCC3)CCCC(C)C2)no1` (stereo not given), the activity change, negative = inhibition was inactive: -28.1%. For `CCS(=O)(=O)c1cccc(C(=O)Nc2ccc(-c3nc4ccccc4s3)c(O)c2)c1`, the activity change, negative = inhibition was inconclusive: -45.9%. For `NNC(=O)COc1ccccc1[N+](=O)[O-]`, the activity change, negative = inhibition was inactive: -0.15%. With `Cc1cccc(NC(=O)Cn2c(=O)c3cccn3c3ccccc32)c1C` the activity change, negative = inhibition was inactive: -16.1%. For `COc1cc2c(cc1OC)CN(c1nc(CN3CCOCC3)nc3sc4c(c13)CCCC4)CC2`, the activity change, negative = inhibition was inactive: 1.17%. With `c1ccc2c(c1)nc(Nc1ccc3c(c1)OCO3)c1nnnn12` the activity change, negative = inhibition was active: -77.7%. For `CSc1ccccc1C(=O)N1CCCC(CNC(=O)c2ccc(F)cc2)C1` (stereo not given), the activity change, negative = inhibition was inconclusive: -41.8%. In the case of `COc1ccc(C2(c3ccc(OC)cc3)NC(=O)N(CC(=O)Nc3ccc(C(=O)N(C)C)cc3)C2=O)cc1`, the activity change, negative = inhibition is reported as active: -66.1%. With `CCn1c(SCC(=O)Nc2c(C)cccc2C)nnc1-c1nonc1NC(C)=O` the activity change, negative = inhibition was inactive: -1.97%. In the case of `CCCNC(=O)C1(C)CCCN(CC(=O)c2ccc3c(c2)OCCO3)C1` (stereo not given), the activity change, negative = inhibition is reported as inactive: -29.9%. In the case of `O=C(O)c1nn(-c2ccc(F)cc2)ccc1=O`, the activity change, negative = inhibition is reported as inconclusive: -41.5%. For `COc1ccc(CCNC(=O)CCS(=O)(=O)c2ccc(C)cc2)cc1OC`, the activity change, negative = inhibition was inactive: 46.9%. In the case of `O=C(NCc1ccc(OC(F)(F)F)cc1)c1cc(-c2ccccc2)nn1CC1CC(c2cccnc2)=NO1` (stereo not given), the activity change, negative = inhibition is reported as active: -67.1%. With `O=C(Nc1cccc(C(F)(F)F)c1)Nc1ccc2snnc2c1` the activity change, negative = inhibition was active: -105%. In the case of `CCOc1ccccc1NC(=S)N(CCCN1CCOCC1)Cc1cn(C)c2ccccc12`, the activity change, negative = inhibition is reported as inconclusive: -50.5%.
